One experiment addresses T1, HA-tagged TRAF6 (UniProt P70196).
T1 sequence: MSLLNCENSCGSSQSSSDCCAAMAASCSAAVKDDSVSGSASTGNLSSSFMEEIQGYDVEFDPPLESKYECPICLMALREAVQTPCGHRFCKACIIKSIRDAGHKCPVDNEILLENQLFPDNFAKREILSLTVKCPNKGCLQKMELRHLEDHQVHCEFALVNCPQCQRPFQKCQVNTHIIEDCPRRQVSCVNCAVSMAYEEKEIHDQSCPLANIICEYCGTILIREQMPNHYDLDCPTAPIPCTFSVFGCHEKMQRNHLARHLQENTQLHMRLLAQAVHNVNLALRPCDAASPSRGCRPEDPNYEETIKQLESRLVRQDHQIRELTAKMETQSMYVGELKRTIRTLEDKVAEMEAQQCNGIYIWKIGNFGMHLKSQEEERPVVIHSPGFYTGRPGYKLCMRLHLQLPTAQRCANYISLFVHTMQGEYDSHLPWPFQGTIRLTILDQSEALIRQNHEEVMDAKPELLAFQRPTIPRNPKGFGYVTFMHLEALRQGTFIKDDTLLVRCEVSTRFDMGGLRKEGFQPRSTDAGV
Kind of experiment: co-IP; HEK293T cells transfected with tagged constructs; lysates precipitated with anti-Flag or anti-HA antibody and protein A/G beads, western blot. In general terms: Immunoblotting shows a protein as a band on a membrane.

By UniProt entry, the sequences of proteins in these tests, tags left out. Where a name states a change or a piece, a line headed by the entry shows the natural chain unless it says otherwise.
UniProt Q9EQK5: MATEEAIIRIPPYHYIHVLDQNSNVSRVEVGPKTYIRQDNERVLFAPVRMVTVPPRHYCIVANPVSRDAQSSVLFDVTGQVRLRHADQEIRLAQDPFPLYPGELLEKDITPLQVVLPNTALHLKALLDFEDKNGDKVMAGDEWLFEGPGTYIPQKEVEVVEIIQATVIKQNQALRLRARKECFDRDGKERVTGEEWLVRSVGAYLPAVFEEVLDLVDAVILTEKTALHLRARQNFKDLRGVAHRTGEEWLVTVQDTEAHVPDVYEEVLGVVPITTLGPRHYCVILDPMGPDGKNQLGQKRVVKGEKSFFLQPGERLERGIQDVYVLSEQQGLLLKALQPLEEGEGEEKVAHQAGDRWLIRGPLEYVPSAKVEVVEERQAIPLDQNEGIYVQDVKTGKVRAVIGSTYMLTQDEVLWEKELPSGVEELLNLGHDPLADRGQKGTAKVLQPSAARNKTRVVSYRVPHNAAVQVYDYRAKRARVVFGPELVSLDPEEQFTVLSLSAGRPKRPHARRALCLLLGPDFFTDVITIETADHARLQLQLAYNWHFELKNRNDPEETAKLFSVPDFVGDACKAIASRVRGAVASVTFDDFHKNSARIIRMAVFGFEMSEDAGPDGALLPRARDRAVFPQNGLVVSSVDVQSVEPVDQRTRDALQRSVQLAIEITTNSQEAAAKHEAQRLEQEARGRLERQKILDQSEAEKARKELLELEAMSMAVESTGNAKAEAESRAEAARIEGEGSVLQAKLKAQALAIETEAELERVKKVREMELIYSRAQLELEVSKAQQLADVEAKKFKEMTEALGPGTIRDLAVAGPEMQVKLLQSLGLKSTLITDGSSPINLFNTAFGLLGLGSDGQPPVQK
UniProt Q62406: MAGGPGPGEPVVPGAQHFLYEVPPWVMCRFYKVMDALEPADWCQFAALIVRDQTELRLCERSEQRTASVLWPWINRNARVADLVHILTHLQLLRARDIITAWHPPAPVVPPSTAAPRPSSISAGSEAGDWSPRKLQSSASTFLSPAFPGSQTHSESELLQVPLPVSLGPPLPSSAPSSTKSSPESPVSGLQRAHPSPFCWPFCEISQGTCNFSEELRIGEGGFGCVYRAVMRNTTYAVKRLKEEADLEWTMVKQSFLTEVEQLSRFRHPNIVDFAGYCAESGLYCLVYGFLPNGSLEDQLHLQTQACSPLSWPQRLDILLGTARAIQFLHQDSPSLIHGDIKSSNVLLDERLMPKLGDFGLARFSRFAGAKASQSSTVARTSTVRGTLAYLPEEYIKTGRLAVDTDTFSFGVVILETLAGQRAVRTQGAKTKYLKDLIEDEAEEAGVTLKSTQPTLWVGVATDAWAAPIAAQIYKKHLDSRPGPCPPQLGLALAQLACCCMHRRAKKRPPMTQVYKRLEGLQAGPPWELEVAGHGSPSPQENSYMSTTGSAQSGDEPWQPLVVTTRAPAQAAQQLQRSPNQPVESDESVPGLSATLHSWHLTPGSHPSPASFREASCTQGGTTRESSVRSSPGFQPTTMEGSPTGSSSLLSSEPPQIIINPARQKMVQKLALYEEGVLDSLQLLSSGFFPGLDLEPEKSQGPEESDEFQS

Experiment [1] deals with Major vault protein (endogenous, murine macrophages) (mouse (endogenous in BMDMs)) (UniProt Q9EQK5). Kind of experiment: co-sedimentation; cell fractionation of macrophages by ultracentrifugation: post-nuclear supernatant (20,000g) spun at 100,000g for 1 h, vault pellet (P fraction) and supernatant (S fraction) blotted; with or without LPS.
The target in experiment [2] is Interleukin 1 receptor-associated kinase 1 (endogenous, BMDMs) (mouse (endogenous in BMDMs)) (UniProt Q62406). Kind of experiment: co-IP; endogenous proteins in lysates of murine BMDMs, with or without LPS (100 ng/ml), WT or MVP-deficient cells; antibody (anti-TRAF6) at 4 °C overnight, protein A/G beads, western blot.
Experiment [3] deals with Flag-tagged MVP, full length (UniProt Q9EQK5). The experiment is described as follows: co-sedimentation; cell fractionation by ultracentrifugation (100,000g pellet) of HEK293T cells co-transfected with Flag-MVP and HA-TRAF6.
For experiment [4] the target is unchanged. The experiment is described as follows: co-IP; HEK293T cells transfected with tagged constructs; lysates precipitated with anti-Flag or anti-HA antibody and protein A/G beads, western blot.
For the next experiment, the target named is IRAK1 in HEK293T cells (UniProt Q62406). Described as above.

No constants are given. Whether binding was seen depends on the method and setting. Binding seen in cells or lysates may run through a third protein. Some entries that bind do so weakly or less than the wild type. For some of these results: Tags and fused reporters may be left off the sequences shown.

As for “Flag-tagged MVP-(481–685) (from UniProt Q9EQK5 481-685) (domain or fragment)”, the binding entry with HA-tagged TRAF6 is given as “binds”.
Regarding “Flag-tagged MVP-(1–480) (from UniProt Q9EQK5 1-480) (domain or fragment)”, the binding entry with HA-tagged TRAF6 is reported as “binds”.

B1: TRAF2 (endogenous, macrophages) (protein, UniProt P39429 1-501)
chain: MAAASVTSPGSLELLQPGFSKTLLGTRLEAKYLCSACKNILRRPFQAQCGHRYCSFCLTSILSSGPQNCAACVYEGLYEEGISILESSSAFPDNAARREVESLPAVCPNDGCTWKGTLKEYESCHEGLCPFLLTECPACKGLVRLSEKEHHTEQECPKRSLSCQHCRAPCSHVDLEVHYEVCPKFPLTCDGCGKKKIPRETFQDHVRACSKCRVLCRFHTVGCSEMVETENLQDHELQRLREHLALLLSSFLEAQASPGTLNQVGPELLQRCQILEQKIATFENIVCVLNREVERVAVTAEACSRQHRLDQDKIEALSNKVQQLERSIGLKDLAMADLEQKVSELEVSTYDGVFIWKISDFTRKRQEAVAGRTPAIFSPAFYTSRYGYKMCLRVYLNGDGTGRGTHLSLFFVVMKGPNDALLQWPFNQKVTLMLLDHNNREHVIDAFRPDVTSSSFQRPVSDMNIASGCPLFCPVSKMEAKNSYVRDDAIFIKAIVDLTGL
As for B1, in experiment [1], the binding entry is reported as “no binding”.

B2: TNF receptor-associated factor 6 (endogenous, murine macrophages) (protein, UniProt P70196 1-530)
chain: T1 sequence
As for B2, the binding entry in experiment [2] and in experiment [1] was “binds” in each case.

B3: HA-tagged TRAF6 (protein, UniProt P70196 1-530)
chain: T1 sequence
On to B3, for which the binding result (in experiment [3]; in experiment [4]; in the experiment with IRAK1 in HEK293T cells) was “binds” in each case.

B4: TRAF3 (endogenous, macrophages) (protein, UniProt Q60803 1-567)
chain: MESSKKMDAAGTLQPNPPLKLQPDRGAGSVLVPEQGGYKEKFVKTVEDKYKCEKCRLVLCNPKQTECGHRFCESCMAALLSSSSPKCTACQESIIKDKVFKDNCCKREILALQVYCRNEGRGCAEQLTLGHLLVHLKNECQFEELPCLRADCKEKVLRKDLRDHVEKACKYREATCSHCKSQVPMIKLQKHEDTDCPCVVVSCPHKCSVQTLLRSELSAHLSECVNAPSTCSFKRYGCVFQGTNQQIKAHEASSAVQHVNLLKEWSNSLEKKVSLLQNESVEKNKSIQSLHNQICSFEIEIERQKEMLRNNESKILHLQRVIDSQAEKLKELDKEIRPFRQNWEEADSMKSSVESLQNRVTELESVDKSAGQAARNTGLLESQLSRHDQMLSVHDIRLADMDLRFQVLETASYNGVLIWKIRDYKRRKQEAVMGKTLSLYSQPFYTGYFGYKMCARVYLNGDGMGKGTHLSLFFVIMRGEYDALLPWPFKQKVTLMLMDQGSSRRHLGDAFKPDPNSSSFKKPTGEMNIASGCPVFVAQTVLENGTYIKDDTIFIKVIVDTSDLPDP
As to B4, in experiment [1], the binding entry is listed as “no binding”.

B5: HA-tagged C-terminal fragment of TRAF6 (332–530) (domain or fragment, UniProt P70196 332-530)
chain: SMYVGELKRTIRTLEDKVAEMEAQQCNGIYIWKIGNFGMHLKSQEEERPVVIHSPGFYTGRPGYKLCMRLHLQLPTAQRCANYISLFVHTMQGEYDSHLPWPFQGTIRLTILDQSEALIRQNHEEVMDAKPELLAFQRPTIPRNPKGFGYVTFMHLEALRQGTFIKDDTLLVRCEVSTRFDMGGLRKEGFQPRSTDAGV
In the case of B5, the binding entry with IRAK1 in HEK293T cells is given as “binds”.

(Values after paper PMC6470148.)
